In patent US20190282663A1 (KEROS THERAPEUTICS, published 2019):
No constants are given. Whether binding was seen depends on the method and setting. Some binding calls cover weakened binding; strength is not graded here.

Molecular target: T1, growth differentiation factor 11 (GDF11) (UniProt O95390)
T1 sequence (looked up): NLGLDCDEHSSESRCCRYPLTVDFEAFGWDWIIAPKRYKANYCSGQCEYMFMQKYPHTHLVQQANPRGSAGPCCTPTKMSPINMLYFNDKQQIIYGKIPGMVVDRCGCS
Experiment: SPR (Biacore 3000), receptor captured on chip, ligand in solution

- binding: binds
B1: ActRIIa/b+ variant (SEQ ID NO: 150) (receptor)
chain: GAILGRSETQECLFYNANWELERTNQTGVERCEGEKDKRLHCYATWRNISGSIEIVAKGCWLDDFNCYDRTDCVETEENPQVYFCCCEGNMCNEKFSYFPEMEVTQPTS
notes: not shown: Fusion partner and its linker
